Experimental data published in the supplement of paper PMC12823440, “Inhibitors supercharge kinase turnover through native proteolytic circuits” (Nature, 2025).
This is one part of the list. The calls rarely recur for the same compound in another form.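 In K562 cells expressing nanoluciferase-fused kinases, luminescence was recorded at 4 h intervals between 2 and 18 h, normalized as percent of control with DMSO at 100% and a positive control at 0%. A significant (2 sigma) signal drop marks a time point as decreased. The authors' rule for a hit is not shown and takes in more than the number of time points.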

Amino acid sequences for entries named in this document (tags omitted). A change or cut given only in a name is not applied to a line headed by its entry.
UniProt O75460: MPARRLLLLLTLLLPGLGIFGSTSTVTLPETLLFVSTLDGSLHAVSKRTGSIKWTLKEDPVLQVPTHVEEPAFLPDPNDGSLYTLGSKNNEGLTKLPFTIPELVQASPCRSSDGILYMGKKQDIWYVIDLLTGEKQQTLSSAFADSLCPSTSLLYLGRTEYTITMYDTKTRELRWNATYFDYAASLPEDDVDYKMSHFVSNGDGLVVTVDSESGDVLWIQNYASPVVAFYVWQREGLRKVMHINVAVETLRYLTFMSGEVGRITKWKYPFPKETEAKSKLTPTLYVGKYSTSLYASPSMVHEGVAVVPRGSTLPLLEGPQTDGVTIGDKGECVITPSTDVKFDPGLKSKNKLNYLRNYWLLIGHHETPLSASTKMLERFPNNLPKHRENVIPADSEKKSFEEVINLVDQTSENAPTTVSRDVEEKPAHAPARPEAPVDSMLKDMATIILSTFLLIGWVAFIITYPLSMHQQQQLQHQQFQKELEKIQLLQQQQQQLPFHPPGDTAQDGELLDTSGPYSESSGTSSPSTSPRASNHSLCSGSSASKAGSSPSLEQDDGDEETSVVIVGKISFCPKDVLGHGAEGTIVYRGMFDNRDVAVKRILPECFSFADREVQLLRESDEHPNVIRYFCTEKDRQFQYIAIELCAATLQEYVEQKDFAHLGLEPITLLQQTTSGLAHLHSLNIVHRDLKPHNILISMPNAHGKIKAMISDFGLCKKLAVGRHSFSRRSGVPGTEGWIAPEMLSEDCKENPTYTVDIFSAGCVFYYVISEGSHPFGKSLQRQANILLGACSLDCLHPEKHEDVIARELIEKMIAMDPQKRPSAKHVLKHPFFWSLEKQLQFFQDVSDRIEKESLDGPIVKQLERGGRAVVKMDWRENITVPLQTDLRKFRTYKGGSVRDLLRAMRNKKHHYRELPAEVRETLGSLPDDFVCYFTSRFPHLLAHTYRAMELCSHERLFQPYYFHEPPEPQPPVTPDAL
UniProt P11362, whole entry, looked up: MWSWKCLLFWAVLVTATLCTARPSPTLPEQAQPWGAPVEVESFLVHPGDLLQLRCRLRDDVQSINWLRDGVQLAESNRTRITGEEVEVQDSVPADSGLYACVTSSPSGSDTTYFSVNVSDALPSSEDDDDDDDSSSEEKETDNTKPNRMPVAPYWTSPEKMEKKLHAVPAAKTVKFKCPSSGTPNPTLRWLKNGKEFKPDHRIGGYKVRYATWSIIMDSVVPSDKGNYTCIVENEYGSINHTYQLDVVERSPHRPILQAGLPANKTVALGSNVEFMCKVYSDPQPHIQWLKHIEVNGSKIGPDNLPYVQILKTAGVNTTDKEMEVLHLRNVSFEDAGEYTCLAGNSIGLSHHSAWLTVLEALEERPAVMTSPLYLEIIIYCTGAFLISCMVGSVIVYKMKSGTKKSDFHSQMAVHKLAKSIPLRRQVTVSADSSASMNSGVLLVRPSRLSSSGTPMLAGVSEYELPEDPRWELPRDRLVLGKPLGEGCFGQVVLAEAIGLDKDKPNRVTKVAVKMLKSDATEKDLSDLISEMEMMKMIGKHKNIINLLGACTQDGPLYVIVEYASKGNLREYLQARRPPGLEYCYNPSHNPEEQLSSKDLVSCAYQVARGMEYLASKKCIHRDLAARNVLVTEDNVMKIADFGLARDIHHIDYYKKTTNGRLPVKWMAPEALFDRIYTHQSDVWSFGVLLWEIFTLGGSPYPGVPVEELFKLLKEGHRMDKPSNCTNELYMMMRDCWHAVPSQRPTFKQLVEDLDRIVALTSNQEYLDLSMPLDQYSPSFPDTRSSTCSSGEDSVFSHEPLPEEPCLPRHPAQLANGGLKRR
UniProt P21802, whole entry, looked up: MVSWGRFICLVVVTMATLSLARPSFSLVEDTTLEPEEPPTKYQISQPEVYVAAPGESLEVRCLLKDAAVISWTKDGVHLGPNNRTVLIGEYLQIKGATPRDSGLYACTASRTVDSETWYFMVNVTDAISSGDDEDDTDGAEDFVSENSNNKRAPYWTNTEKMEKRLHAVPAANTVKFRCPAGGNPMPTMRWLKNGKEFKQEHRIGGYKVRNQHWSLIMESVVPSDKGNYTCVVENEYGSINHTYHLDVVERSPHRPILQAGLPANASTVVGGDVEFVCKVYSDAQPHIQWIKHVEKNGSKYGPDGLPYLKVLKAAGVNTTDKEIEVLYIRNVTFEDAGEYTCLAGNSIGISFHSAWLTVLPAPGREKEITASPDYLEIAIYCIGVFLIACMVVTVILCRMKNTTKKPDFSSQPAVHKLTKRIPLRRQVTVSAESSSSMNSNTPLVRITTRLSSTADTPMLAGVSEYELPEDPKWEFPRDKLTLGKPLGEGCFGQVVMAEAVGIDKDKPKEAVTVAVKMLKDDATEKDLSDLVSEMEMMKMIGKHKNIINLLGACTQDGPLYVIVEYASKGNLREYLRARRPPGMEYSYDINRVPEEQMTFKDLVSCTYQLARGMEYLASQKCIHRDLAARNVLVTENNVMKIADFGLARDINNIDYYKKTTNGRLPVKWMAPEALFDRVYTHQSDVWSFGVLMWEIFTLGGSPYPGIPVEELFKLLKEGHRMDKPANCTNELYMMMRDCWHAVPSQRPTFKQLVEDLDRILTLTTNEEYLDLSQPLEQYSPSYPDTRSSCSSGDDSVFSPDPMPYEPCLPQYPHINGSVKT
UniProt P22607, whole entry, looked up: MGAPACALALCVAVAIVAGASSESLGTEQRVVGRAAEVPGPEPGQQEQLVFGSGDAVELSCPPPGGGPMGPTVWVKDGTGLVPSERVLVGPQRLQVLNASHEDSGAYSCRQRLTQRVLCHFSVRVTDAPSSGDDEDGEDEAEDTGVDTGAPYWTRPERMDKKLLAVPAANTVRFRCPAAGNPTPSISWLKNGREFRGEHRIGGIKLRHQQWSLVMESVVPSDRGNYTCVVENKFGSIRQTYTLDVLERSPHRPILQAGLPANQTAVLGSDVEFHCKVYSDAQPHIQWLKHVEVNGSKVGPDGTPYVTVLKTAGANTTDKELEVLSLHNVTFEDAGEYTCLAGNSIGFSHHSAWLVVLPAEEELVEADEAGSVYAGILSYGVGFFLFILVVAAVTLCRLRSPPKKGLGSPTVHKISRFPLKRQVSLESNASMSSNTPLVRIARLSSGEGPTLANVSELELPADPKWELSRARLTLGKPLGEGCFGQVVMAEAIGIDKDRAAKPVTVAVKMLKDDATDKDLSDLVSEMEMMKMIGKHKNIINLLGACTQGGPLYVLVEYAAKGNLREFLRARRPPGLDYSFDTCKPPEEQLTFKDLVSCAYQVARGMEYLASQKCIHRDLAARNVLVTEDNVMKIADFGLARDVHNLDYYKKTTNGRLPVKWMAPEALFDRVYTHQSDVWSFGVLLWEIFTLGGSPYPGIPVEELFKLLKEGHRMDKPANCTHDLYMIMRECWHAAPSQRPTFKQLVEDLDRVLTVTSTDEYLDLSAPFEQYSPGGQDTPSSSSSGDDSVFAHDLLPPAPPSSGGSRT
UniProt P36888, whole entry: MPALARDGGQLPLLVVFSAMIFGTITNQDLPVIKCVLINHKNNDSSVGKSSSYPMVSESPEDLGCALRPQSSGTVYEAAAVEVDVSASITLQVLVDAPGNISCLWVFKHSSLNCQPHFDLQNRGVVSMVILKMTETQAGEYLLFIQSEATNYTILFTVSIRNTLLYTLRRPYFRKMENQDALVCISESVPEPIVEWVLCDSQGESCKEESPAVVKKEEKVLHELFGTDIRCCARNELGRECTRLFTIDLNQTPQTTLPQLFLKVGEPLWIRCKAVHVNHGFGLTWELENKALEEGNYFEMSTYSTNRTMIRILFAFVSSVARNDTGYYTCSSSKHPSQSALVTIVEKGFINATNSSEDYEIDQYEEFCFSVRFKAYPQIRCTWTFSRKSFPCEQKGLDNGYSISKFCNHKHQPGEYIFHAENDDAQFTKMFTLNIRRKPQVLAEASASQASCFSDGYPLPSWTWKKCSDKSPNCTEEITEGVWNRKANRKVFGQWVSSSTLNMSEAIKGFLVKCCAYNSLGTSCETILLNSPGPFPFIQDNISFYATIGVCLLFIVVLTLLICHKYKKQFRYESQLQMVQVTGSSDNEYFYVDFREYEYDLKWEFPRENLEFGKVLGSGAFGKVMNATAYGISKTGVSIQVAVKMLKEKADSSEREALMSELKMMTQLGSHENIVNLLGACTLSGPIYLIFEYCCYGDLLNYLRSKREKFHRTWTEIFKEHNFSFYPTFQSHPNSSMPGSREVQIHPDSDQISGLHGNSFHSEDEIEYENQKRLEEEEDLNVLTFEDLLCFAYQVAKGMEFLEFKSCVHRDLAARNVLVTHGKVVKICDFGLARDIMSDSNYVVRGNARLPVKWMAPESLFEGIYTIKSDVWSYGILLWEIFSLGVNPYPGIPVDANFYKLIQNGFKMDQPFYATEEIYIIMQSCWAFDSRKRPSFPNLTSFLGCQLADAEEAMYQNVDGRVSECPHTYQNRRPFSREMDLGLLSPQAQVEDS
UniProt P49840: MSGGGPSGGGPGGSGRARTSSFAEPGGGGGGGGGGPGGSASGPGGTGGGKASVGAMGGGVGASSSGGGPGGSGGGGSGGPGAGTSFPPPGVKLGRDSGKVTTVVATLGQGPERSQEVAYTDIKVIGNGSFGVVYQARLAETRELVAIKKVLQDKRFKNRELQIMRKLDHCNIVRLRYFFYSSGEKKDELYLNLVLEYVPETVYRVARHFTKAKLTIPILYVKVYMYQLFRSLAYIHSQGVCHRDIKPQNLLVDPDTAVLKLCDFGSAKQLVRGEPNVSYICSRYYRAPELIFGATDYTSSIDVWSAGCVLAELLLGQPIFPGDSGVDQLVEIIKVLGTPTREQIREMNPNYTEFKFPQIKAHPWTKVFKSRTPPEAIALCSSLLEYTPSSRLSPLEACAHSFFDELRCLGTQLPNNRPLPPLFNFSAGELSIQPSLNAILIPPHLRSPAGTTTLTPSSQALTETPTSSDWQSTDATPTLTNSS
UniProt P14616: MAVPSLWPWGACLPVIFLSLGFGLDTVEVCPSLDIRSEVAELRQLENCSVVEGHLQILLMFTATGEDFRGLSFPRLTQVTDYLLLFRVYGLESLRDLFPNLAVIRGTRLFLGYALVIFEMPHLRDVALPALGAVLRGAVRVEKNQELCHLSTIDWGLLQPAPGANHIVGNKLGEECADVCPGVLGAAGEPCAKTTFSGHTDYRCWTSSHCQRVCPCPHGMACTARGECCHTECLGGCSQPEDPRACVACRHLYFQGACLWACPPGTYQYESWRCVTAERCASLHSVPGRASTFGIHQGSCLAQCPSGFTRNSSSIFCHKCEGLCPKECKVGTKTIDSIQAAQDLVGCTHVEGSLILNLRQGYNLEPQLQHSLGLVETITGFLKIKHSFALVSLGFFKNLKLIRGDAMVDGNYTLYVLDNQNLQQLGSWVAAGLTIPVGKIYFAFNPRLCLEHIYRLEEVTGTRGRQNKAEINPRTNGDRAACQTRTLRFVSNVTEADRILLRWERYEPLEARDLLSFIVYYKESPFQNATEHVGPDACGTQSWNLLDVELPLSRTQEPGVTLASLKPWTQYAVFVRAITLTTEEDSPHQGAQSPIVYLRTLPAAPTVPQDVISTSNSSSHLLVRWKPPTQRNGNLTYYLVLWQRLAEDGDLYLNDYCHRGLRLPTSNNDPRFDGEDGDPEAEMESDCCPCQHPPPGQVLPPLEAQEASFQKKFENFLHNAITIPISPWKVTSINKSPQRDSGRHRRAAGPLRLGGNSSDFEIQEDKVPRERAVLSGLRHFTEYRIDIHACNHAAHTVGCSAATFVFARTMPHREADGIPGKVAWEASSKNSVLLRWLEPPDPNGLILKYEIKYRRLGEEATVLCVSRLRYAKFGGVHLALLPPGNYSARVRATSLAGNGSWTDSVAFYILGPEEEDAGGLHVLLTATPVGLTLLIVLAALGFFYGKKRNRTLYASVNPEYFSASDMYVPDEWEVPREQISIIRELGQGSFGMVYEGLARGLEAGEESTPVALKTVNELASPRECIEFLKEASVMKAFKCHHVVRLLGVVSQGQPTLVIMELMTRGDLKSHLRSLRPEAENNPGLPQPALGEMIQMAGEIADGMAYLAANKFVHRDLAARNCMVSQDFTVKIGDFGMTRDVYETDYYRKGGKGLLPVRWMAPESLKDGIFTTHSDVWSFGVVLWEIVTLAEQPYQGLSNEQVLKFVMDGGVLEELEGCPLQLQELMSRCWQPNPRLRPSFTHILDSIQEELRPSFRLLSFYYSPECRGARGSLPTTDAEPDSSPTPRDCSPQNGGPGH

How the values were obtained:
Assay in all cases: kinase-Nluc reporter destabilization hit call (1 = scored as downregulated) (binary); higher = compound decreases kinase abundance
Conditions in all cases: K562; 2-18 h
ERN1 = ERN1 (UniProt O75460)
FGFR1 = FGFR1 (UniProt P11362)
FGFR2 = FGFR2 (UniProt P21802)
FGFR3 = FGFR3 (UniProt P22607)
FGR = FGR (UniProt P09769)
FLT3 = FLT3 (UniProt P36888)
FYN = FYN (UniProt P06241)
GSK3A = GSK3A (UniProt P49840)
HER2 = HER2 (UniProt P04626)
INSRR = INSRR (UniProt P14616)

Measured: kinase-Nluc reporter destabilization hit call

CNC(=O)c1ccc2c(c1)ncn2-c1ccc(CC(=O)OC(C)(C)C)cc1 (10 µM)
inactive: ERN1 = 0 | FGFR1 = 0 | FGFR2 = 0 | FGFR3 = 0 | FGR 0 | FLT3 = 0 | FYN 0 | GSK3A 0 | HER2 = 0 | INSRR 0

O=c1c2c([nH]n1-c1nc3ccccc3s1)CCCC2 (10 µM)
inactive: ERN1 = 0 | FGFR1 = 0 | FGFR2 = 0 | FGFR3 = 0 | FGR 0 | FLT3 = 0 | FYN 0 | GSK3A 0 | HER2 = 0 | INSRR 0

Nc1nc2c(nc(Br)n2[C@@H]2O[C@@H]3COP(=O)(O)O[C@H]3[C@H]2O)c(=O)[nH]1 [8-Bromo-cGMP (sodium)] (10 µM)
inactive: ERN1 = 0 | FGFR1 = 0 | FGFR2 = 0 | FGFR3 = 0 | FGR 0 | FLT3 = 0 | FYN 0 | GSK3A 0 | HER2 = 0 | INSRR 0
